PubChem BioAssay AID2551 (National Center for Advancing Translational Sciences (NCATS), 2010)
Where “and” joins values, the source holds several entries; their conditions need not be identical. Equal values may be shown once. Hit rate of the full screen: of about 310,000 compounds, about 17,000 (5.5%) were called active. This list was built around the results that the source calls inconclusive (neither active nor inactive); the mix of calls is not that of the screen. Calls come from the whole dose curve; as a rule, active = well fitted inhibition curve with a large enough effect; inconclusive = small, poorly fitted or top-dose-only effect, or effect the other way; inactive = no such curve, though single readings can be large or run the other way. Where the call is inconclusive, the potency comes from a doubtful curve fit.

Protein sequences, listed by entry. Tags and fused reporters are not part of them. Lines headed by an entry give the natural chain unless they say otherwise; changes in a name come on top.
UniProt P51450: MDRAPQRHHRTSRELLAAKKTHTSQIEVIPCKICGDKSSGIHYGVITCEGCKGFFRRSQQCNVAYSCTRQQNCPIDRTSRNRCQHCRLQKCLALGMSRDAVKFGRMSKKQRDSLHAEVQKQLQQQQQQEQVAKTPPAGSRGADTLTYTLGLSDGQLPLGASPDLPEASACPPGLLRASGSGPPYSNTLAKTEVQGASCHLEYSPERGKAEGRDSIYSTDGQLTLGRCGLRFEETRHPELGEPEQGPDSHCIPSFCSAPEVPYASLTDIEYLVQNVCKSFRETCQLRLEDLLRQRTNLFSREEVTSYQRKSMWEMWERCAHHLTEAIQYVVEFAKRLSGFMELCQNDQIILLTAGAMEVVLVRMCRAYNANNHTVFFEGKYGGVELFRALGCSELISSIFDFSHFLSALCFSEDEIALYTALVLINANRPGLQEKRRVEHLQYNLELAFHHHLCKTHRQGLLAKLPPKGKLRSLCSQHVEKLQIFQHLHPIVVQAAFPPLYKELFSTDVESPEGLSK

target: Nuclear receptor ROR-gamma (Mus musculus) (UniProt P51450); test: qHTS for inhibitors of ROR gamma transcriptional activity; conditions: Drosophila S2 Gal4-RORgamma UAS-luciferase reporter, 20 h; activity change, negative = inhibition: at 53.6 µM (top of the series); note: nearly all actives have a fitted effect of over 60% in size
Method in brief: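 Luciferase reporter read in Schneider cells carrying Gal4-RORγ (mouse) and UAS-Photinus luciferase; cells given compound 1 h before 700 uM copper sulfate induction, then incubated 20 h at ambient temperature.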
% is set by controls: 0 for no effect and ±100 for the full control effect; potency is the fitted concentration of half-maximal effect.

Row | SMILES | Potency | activity change, negative = inhibition
1 | Oc1ccc(/C=N/Nc2ccc(C(F)(F)F)cn2)c(O)c1 | inconclusive: 20 µM [inhibitor, single point] | 
2 | CCOc1ccc(CCNC(=O)CN2C(=O)c3cccnc3Oc3ccc(Cl)cc32)cc1 |  | inactive: 1.05%
3 | CCCNC(=O)COC(=O)c1ccc(S(=O)(=O)N2CCCC2)cc1 |  | inactive: -18.8%
4 | O=C(Nc1nccs1)c1ccc2c(c1)OCO2 |  | inactive: -41.9%
5 | O=C1NC(c2ccccc2)(C(F)(F)F)SC2=NCCCN12 (stereo unspecified) |  | inactive: 28.6%
6 | CC(C)(C)C1CCc2sc(C(=O)NNC(=O)CCl)cc2C1 (stereo unspecified) | inconclusive: 12.6 µM [inhibitor, partial curve, poor fit] | 
7 | COc1ccc(CNc2ccnc(-c3cccc(C#N)c3)n2)c(OC)c1 | inconclusive: 8.91 µM [activator, partial curve] | 
8 | O=c1cc(CN2CCN(c3cccc(Cl)c3)CC2)c2cc(O)c(-c3ccccc3)cc2o1 | inconclusive: 0.0562 µM [activator, full curve, poor fit] | 
9 | C=C(C)CNC(=S)/N=c1\scc(C)n1CC | active: 7.94 µM | 
10 | COc1ccc(NC(=O)c2cc(-c3ccccc3O)n[nH]2)cc1Cl |  | inactive: -10.4%
11 | NS(=O)(=O)c1cccc(NC(=O)CSc2nc3ccccc3c(=O)n2CCCN2CCOCC2)c1 |  | inactive: 31.9%
12 | CN(C)c1ccccc1C(=O)N1CCCC(C(=O)c2ccc3ccccc3c2)C1 (stereo unspecified) | inconclusive: 11.2 µM [activator, partial curve, poor fit] | 
13 | COc1ccc(OC)c(C2=Nn3c(nnc3-c3cc(C)[nH]n3)SC2)c1 |  | inactive: -0.0437%
14 | O=C(c1ccc(Cl)cc1)c1c[nH]c(C(=O)NNc2cccc(Cl)n2)c1 | inconclusive: 35.5 µM [inhibitor, single point] | 
15 | O=C(Nc1cccc(Cl)c1N1CCOCC1)c1ccc2c(c1)OCCO2 | inconclusive: 14.1 µM [activator, single point] | 
16 | Cc1ccc(Cn2c(=N)n(CC(O)COc3ccccc3)c3ccccc32)cc1 (stereo unspecified) | active: 5.01 µM | 
17 | CC(NC(=S)NCCN1CCOCC1)C12CC3CC(CC(C3)C1)C2 (stereo unspecified) | active: 5.01 µM | 
18 | O=[N+]([O-])c1cc(C=Nc2cccc3c(O)cccc23)ccc1Cl | inconclusive: 35.5 µM [inhibitor, single point] | 
19 | O=c1c2cc(N3CCOCC3)ccc2[nH]c(=S)n1Cc1ccco1 | active: 14.1 µM | 
20 | NNC(=S)NC1CC2CC1C1C=CCC21 (stereo unspecified) | active: 0.447 µM | 
21 | O=C(CC1S/C(=N/N=C/c2c[nH]c3ccccc23)NC1=O)Nc1ccccc1 (stereo unspecified) | inconclusive: 10 µM [activator, partial curve] | 
22 | Cc1c(NC(=O)c2ccc(C(C)(C)C)cc2)cccc1[N+](=O)[O-] | inconclusive: 11.2 µM [activator, partial curve] | 
23 | O=C(O)c1ccc(-n2cccc2/C=C2/NC(=O)N(c3ccccc3)C2=O)cc1 |  | inactive: 11.6%
24 | Cc1ncoc1C(=O)N1CCCC(CCC(=O)NCc2ccccc2F)C1 (stereo unspecified) |  | inactive: 3.46%
25 | CC1CCCC(NC(=S)NC(=O)c2ccccc2Br)C1C (stereo unspecified) | active: 2.51 µM | 
26 | COc1cc(/C=C/C(=O)OCc2cn3cc(Cl)ccc3n2)ccc1O |  | inactive: -15.1%

Row | SMILES | Potency | activity change, negative = inhibition
27 | O=C(/C=C/c1ccco1)NC(=S)N1CCCCC1 | active: 3.98 µM | 
28 | N#Cc1c(NC(=O)CCC(=O)O)sc2c1CCCCC2 |  | inactive: -1.5%
29 | CCOc1ccc(S(=O)(=O)Nc2cc(Sc3ncn[nH]3)c3oc(=O)sc3c2)cc1 | inconclusive: 35.5 µM [inhibitor, single point] | 
30 | CCc1ccc2nc(SCC(=O)N(CC)CC)c(C#N)cc2c1 | inconclusive: 0.282 µM [inhibitor, full curve, poor fit] | 
31 | Nc1nc(SCC(=O)Nc2cccc(Oc3ccccc3)c2)n[nH]1 | inconclusive: 35.5 µM [activator, single point] | 
32 | Cc1nn(Cc2c(Cl)cccc2Cl)c(C)c1NC(=O)c1cc(C(C)C)on1 | inconclusive: 14.1 µM [inhibitor, single point] | 
33 | CC1Cc2ccccc2N1C(=O)CSc1nnc(-c2ccc(S(=O)(=O)N3CCCC3)cc2)o1 (stereo unspecified) |  | inactive: -3%
34 | CCCCn1c(-c2cccnc2)n[nH]c1=S | inconclusive: 15.8 µM [inhibitor, single point] | 
35 | COC(=O)c1ccccc1NC(=O)CN1CCN(C(=O)c2ccco2)CC1 | inconclusive: 0.631 µM [inhibitor, full curve, poor fit] | 
36 | O=C(NC(=S)Nc1ccc(F)cc1)C1CCCCC1 | active: 8.91 µM | 
37 | CCCCCCCCC[n+]1cccc2c3ccccc3ccc21 | active: 8.91 µM | 
38 | COc1ccc(NC(=O)Cn2c(C)cc(=O)c3ccccc32)cc1 |  | inactive: 14.1%
39 | O=C(/C=C/c1ccccc1Cl)Nc1ccccc1 | active: 2 µM | 
40 | Cc1cc(C)nc(N/N=C/c2ccccc2OCc2ccc(Br)cc2)n1 | active: 7.08 µM | 
41 | CCN(CC)c1ccc(NC(=O)Cn2nnc(-c3cccc(OC)c3OC)n2)c(C)c1 | inconclusive: 3.55 µM [inhibitor, single point] | 
42 | Cn1c(=O)n(C)c2cc([N+](=O)[O-])c(N3CCN(S(=O)(=O)c4ccccc4)CC3)cc21 | inconclusive: 12.6 µM [activator, partial curve] | 
43 | CCN(CC)c1ccc(CNC(=O)C/C(C)=N/NC(=O)COc2ccc(C)cc2Br)cc1 | inconclusive: 35.5 µM [inhibitor, single point] | 
44 | Cn1ncc(Cl)c1C(=O)N/N=C/c1cc2c(cc1[N+](=O)[O-])OCO2 |  | inactive: -31.7%
45 | Cc1nc(NN)c2c3c(sc2n1)COC(C)(C)C3 | active: 12.6 µM | 
46 | CCCn1c(C)nc2c(N(CCN(C)C)Cc3ccccc3)nc(C)nc21 |  | inactive: -17.9%
47 | CCOC(=O)C1=C(C(C)=O)C(c2cccnc2)C(C#N)=C(N)O1 (stereo unspecified) |  | inactive: 2.08%
48 | NNc1nc2cc3c(cc2s1)OCCO3 | inconclusive: 20 µM [inhibitor, single point] | 
49 | O=C(Nc1nnc(-c2ccco2)o1)c1ccc(S(=O)(=O)N2CCOCC2)cc1 | active: 1.78 µM | 
50 | Cc1cc2nc(C)n(CCCNC(=O)Nc3cccc4ccccc34)c2cc1C |  | inactive: 12.4%
51 | C=CCNC(=S)NNC(=O)c1cccnc1 | inconclusive: 15.8 µM [inhibitor, single point] | 
52 | COc1ccc2[nH]c(=O)c(CNc3ccccc3OC)cc2c1 |  | inactive: 7.32%

Arranged by count of non-hydrogen atoms (largest number first): 3 of the compounds above
Row | SMILES | Potency | activity change, negative = inhibition
29 | CCOc1ccc(S(=O)(=O)Nc2cc(Sc3ncn[nH]3)c3oc(=O)sc3c2)cc1 | inconclusive: 35.5 µM [inhibitor, single point] | 
30 | CCc1ccc2nc(SCC(=O)N(CC)CC)c(C#N)cc2c1 | inconclusive: 0.282 µM [inhibitor, full curve, poor fit] | 
28 | N#Cc1c(NC(=O)CCC(=O)O)sc2c1CCCCC2 |  | inactive: -1.5%

The results go on:

Row | SMILES | Potency | activity change, negative = inhibition
53 | Cc1cccc(NC(=S)NCC(c2cccnc2)N(C)C)c1 (stereo unspecified) |  | inactive: -29.6%
54 | Cc1cc(NC(=O)CSc2ccc3nnc(-c4ccccn4)n3n2)no1 | inconclusive: 0.794 µM [inhibitor, single point] | 
55 | O=C(/C=C/C(=O)N1CCc2ccccc2C1)N1CCc2ccccc2C1 | inconclusive: 31.6 µM [inhibitor, single point] | 
56 | CCC(C)n1c(=O)c(C(=O)Nc2ccccc2S(N)(=O)=O)c(O)c2ccccc21 (stereo unspecified) | inconclusive: 35.5 µM [activator, single point] | 
57 | CC1(C)S[C@@H]2[C@H](NC(=O)COc3ccccc3)C(=O)N2[C@H]1C(=O)O |  | inactive: 7.35%
58 | O=C(COc1ccc(F)cc1)N1CCC(Cc2ccccc2)CC1 | inconclusive: 5.62 µM [activator, full curve] | 
59 | CCOc1ccccc1NC(=S)NCCc1ccccc1 | active: 1.26 µM | 
60 | Cc1cc(C(=O)N/N=C\c2cc(C(C)(C)C)ccc2O)n[nH]1 | active: 2.24 µM | 
61 | Cn1c(N)c(C(=O)COC(=O)c2cc(-c3ccco3)nc3ccccc23)c(=O)n(C)c1=O | inconclusive: 12.6 µM [activator, partial curve] and inconclusive: 15.8 µM [activator, single point] | 
62 | CCOc1ccc(NC(=O)c2ccc(N3CC4CC(C3)c3cccc(=O)n3C4)c(NC(=O)CCN3CCOCC3)c2)cc1 (stereo unspecified) |  | inactive: -8.55%
63 | COc1ccccc1CC1S/C(=N/N=C/c2ccco2)NC1=O (stereo unspecified) | active: 2.24 µM | 
64 | COc1ccc(CNC(=O)c2sc3nc4c(c(C(F)(F)F)c3c2N)CCC4)cc1OC | inconclusive: 14.1 µM [activator, single point] | 
65 | COc1ccc2cc(C(=O)C3CCCN(C(=O)CCc4cnn(C)c4)C3)ccc2c1 (stereo unspecified) | inconclusive: 17.8 µM [activator, partial curve] | 
66 | COc1cc(Cl)c(C)cc1NC(=O)COC(=O)c1cc(SC)ccc1Cl | inconclusive: 6.31 µM [activator, single point] | 
67 | O=C(CSc1ccc2nnc(-c3ccccc3)n2n1)NCc1ccco1 | inconclusive: 2 µM [inhibitor, full curve, poor fit] | 
68 | Cc1ccc(CNC(=O)COC(=O)c2cc3c(s2)CCC(C)C3)cc1 (stereo unspecified) | inconclusive: 17.8 µM [inhibitor, partial curve, poor fit] | 
69 | CCOC(=O)c1cc(C#N)c(N2CCN(C(=O)c3cccc(C(F)(F)F)c3)CC2)nc1C(F)(F)F | inconclusive: 35.5 µM [activator, single point] | 
70 | Cc1ccc(S(=O)(=O)N2CCOC2CNC(=O)C(=O)NCc2ccc(Cl)cc2)cc1 (stereo unspecified) |  | inactive: 22.1%
71 | O=c1n(Cc2ccccc2)nc2n1-c1ccccc1SC2 | inconclusive: 14.1 µM [activator, partial curve] | 
72 | Cc1ccc(C(=O)Nc2ccc(C(=O)N/N=C/c3ccncc3)cc2)cc1 | inconclusive: 0.708 µM [activator, single point] | 
73 | CC(/C=C/c1cccc([N+](=O)[O-])c1)=N\NC(=O)c1ccncc1 | active: 5.01 µM | 
74 | c1csc(Cn2c(-c3cccs3)nc3ccccc32)c1 | inconclusive: 35.5 µM [inhibitor, single point] | 
75 | c1ccc2c(c1)ccc1ccccc12 |  | inactive: 0.407%
76 | Cc1cccc(CNc2ccc(C(CC(N)=O)NC(=O)Cc3cccc4ccccc34)cc2[N+](=O)[O-])c1 (stereo unspecified) |  | inactive: 16.9%
